# Measurements taken from paper PMC11347378.
# Sequences of proteins named here, by UniProt entry; tags and fusion partners are left off.
# UniProt Q61501: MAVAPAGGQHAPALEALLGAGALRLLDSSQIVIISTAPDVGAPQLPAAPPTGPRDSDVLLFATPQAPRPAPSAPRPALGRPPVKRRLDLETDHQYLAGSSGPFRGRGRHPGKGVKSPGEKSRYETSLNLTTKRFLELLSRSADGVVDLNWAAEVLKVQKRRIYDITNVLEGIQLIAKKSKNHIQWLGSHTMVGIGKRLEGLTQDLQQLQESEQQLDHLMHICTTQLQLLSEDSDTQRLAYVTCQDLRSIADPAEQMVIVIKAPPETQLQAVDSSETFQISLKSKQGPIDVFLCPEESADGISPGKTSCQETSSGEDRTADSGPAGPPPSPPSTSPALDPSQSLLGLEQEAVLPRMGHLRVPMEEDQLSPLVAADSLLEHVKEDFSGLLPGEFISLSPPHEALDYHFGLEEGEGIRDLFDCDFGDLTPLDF
# UniProt Q8R0K9: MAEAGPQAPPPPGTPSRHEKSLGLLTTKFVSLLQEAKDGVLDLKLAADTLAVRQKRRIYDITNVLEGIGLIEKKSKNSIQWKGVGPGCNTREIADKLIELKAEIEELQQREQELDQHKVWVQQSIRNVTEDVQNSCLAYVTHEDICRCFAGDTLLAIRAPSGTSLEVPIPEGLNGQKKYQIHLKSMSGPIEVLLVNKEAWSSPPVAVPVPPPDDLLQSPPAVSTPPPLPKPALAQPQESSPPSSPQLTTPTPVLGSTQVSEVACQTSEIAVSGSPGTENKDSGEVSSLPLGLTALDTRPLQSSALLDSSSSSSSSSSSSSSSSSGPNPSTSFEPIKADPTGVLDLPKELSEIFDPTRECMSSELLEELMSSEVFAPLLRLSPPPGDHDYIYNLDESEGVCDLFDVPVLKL
# No constants are given. Whether binding was seen depends on the method and setting. Binding seen in cells or lysates may run through a third protein. Some entries that bind do so weakly or less than the wild type.
# Target: T1, TFDP1 (transcription factor DP-1) (mouse (endogenous in HSPCs)) (UniProt Q08639)
# T1 sequence: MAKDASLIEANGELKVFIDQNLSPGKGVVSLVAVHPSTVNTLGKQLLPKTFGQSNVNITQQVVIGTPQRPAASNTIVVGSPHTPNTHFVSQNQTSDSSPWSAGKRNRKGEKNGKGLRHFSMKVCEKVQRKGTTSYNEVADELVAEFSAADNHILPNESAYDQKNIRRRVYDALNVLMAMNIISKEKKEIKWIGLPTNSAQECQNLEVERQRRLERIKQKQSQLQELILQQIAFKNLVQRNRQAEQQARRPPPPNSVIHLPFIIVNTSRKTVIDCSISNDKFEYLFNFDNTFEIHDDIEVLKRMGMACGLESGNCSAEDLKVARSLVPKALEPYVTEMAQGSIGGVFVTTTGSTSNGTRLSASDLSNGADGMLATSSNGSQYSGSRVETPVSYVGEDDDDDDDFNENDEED
# Experiment: co-IP; endogenous proteins; 1 x 10^7 expanded mouse Cas9-HSPCs lysed in RIPA buffer with protease inhibitors; 500 ug total protein immunoprecipitated overnight with anti-TFDP1, anti-E2F4 or anti-E2F1; captured on Protein A + G magnetic beads
row,binding,Substance
1,binds,E2F1 (from UniProt Q61501 1-430)
2,binds,E2F4 (from UniProt Q8R0K9 1-410)
